Reference: PubChem BioAssay (EPA / NIEHS)
This list was built around the results that the source calls inconclusive (neither active nor inactive); the mix of calls is not that of the screen. Potencies of inconclusive entries are doubtful fits and often do not repeat. Active and inactive are the calls of the source. The calls were made as follows: active = hit-call score of the fitted dose curve at least 0.9, where 1 is the maximum; inconclusive = response in the unintended direction; inactive = score below 0.9.

Protein sequences, listed by entry. Tags and fused reporters are not part of them.
UniProt P04637, whole entry, looked up: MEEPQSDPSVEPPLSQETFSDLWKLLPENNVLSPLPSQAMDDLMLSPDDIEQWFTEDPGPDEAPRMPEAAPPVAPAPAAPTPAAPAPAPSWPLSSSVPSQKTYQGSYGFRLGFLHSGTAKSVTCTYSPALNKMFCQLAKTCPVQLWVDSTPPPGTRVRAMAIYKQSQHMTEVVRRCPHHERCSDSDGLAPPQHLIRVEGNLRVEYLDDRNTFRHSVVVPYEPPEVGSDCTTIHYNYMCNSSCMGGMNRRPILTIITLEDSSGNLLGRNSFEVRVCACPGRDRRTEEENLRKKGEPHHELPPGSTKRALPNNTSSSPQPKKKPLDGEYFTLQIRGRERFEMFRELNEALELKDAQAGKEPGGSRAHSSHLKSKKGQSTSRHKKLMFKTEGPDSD

target: Cellular tumor antigen p53 (Homo sapiens) (UniProt P04637); test: TOX21_p53_BLA_p4_ratio: Tox21 HCT-116 p53 Agonism Beta-lactamase Assay, Ratio, Phase 4 (AID 2283601)
Outline: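 HCT-116 p53 beta-lactamase reporter cells (4000/well) preincubated 5 h, then compound (217-fold dilution of DMSO stock) for 16 h at 37C. CCF4-AM substrate added 2 h at room temperature; 460/530 nm emission ratio fitted upward versus DMSO.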

Row | Structure (SMILES) | AC50 | outcome
1 | NC(=O)[C@H]1O[C@@H](O)[C@H](O)[C@@H](O)[C@@H]1O | inconclusive: 23 µM | 
2 | CCCc1nc2c(C)cc(-c3nc4ccccc4n3C)cc2n1Cc1ccc(-c2ccccc2C(=O)O)cc1 | inconclusive: 23 µM | 
3 | CCCCS | inconclusive: 47 µM | 
4 | Cc1ccccc1C#N | inconclusive: 45.2 µM | 
5 | N#Cc1c(N(CC(=O)O)CC(=O)O)sc(C(=O)O)c1CC(=O)O |  | inactive
6 | CN(C)CCN(Cc1ccccc1)c1ccccn1 | inconclusive: 20.3 µM | 
7 | Nc1ccc(N=Nc2ccc(N)cc2)cc1 | inconclusive: 23.5 µM | 
8 | CCCCNC1CC(C)(C)NC(C)(C)C1 | inconclusive: 46.1 µM | 
9 | CCN1CC(CCN2CCOCC2)C(c2ccccc2)(c2ccccc2)C1=O (stereo not given) | inconclusive: 23 µM | 
10 | CC(C)=C1CC[C@@H](C)CC1=O |  | inactive
11 | CCC(=O)OC/C=C/c1ccccc1 | inconclusive: 46.1 µM | 
12 | O=C1OC(=O)C2CC=CCC12 (stereo not given) | inconclusive: 46.2 µM | 
13 | NC(=O)N[C@@H](CCC(=O)O)C(=O)O |  | inactive
14 | NS(=O)(=O)c1ccc(Cl)c(S(N)(=O)=O)c1 |  | inactive
15 | CCC(C)(C)CC | inconclusive: 79.8 µM | 
16 | O=P(O)(O)OC(Cn1cncn1)(Cn1cncn1)c1ccc(F)cc1F | inconclusive: 23 µM | 
17 | CC(=O)OCC(=O)[C@@]1(O)CC[C@H]2[C@@H]3CCC4=CC(=O)CC[C@]4(C)C3=CC[C@@]21C |  | inactive
18 | CN1CCN(C(c2ccccc2)c2ccccc2)CC1 |  | inactive
19 | CCC(C)(CN(C)C)OC(=O)c1ccccc1 (stereo not given) | inconclusive: 18.7 µM | 
20 | NC(=O)Cc1cccc2ccccc12 |  | inactive

Five of the compounds above, in markdown:

| Row | Structure (SMILES) | AC50 | outcome |
| --- | --- | --- | --- |
| 10 | CC(C)=C1CC[C@@H](C)CC1=O |  | inactive |
| 11 | CCC(=O)OC/C=C/c1ccccc1 | inconclusive: 46.1 µM |  |
| 12 | O=C1OC(=O)C2CC=CCC12 (stereo not given) | inconclusive: 46.2 µM |  |
| 13 | NC(=O)N[C@@H](CCC(=O)O)C(=O)O |  | inactive |
| 14 | NS(=O)(=O)c1ccc(Cl)c(S(N)(=O)=O)c1 |  | inactive |
